Reference: paper PMC12520810
These are yes or no findings as the source states them, for the method shown. Binding seen in cells or lysates may run through a third protein. Some results given as binding are weak or reduced against the parent protein; the word gives no strength. Sequences can lack the tags named with a protein.

Sequences of proteins named here, by UniProt entry; tags and fusion partners are left off.
UniProt Q9QZL0: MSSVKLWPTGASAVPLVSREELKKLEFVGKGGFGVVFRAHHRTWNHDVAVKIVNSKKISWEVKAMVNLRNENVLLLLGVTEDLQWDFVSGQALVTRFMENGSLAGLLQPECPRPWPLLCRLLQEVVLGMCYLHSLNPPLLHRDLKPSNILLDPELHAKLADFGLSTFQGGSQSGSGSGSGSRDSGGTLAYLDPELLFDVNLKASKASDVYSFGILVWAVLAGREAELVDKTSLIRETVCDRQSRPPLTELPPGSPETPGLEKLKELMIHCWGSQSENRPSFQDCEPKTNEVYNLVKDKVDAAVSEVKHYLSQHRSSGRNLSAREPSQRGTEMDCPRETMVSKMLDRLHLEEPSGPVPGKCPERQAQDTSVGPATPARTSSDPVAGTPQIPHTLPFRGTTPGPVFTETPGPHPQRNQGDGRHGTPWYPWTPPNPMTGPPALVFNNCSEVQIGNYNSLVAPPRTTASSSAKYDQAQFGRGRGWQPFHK

Molecular target: T1, FLAG-tagged Z-nucleic acid-binding protein 1 (ZBP1) (mouse (cDNA from BV2 microglial cells)) (UniProt Q9QY24)
T1 sequence: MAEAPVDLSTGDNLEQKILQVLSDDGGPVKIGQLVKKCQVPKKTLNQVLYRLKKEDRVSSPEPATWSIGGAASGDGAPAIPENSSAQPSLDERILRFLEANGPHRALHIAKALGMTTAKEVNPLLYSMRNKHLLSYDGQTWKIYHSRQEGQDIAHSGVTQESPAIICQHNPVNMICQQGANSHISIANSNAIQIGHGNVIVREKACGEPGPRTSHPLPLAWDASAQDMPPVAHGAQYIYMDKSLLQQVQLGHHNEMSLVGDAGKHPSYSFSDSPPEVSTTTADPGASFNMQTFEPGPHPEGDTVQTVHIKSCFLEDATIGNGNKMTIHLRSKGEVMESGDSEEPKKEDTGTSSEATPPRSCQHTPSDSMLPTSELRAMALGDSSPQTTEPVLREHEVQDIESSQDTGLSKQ
Assay: co-IP

HA-tagged receptor-interacting protein kinase 3 (RIPK3) (from UniProt Q9QZL0 1-486)
binding: binds
